Some of the results follow.

The target of the experiment is T1, OsSMF1 (Oryza sativa, UniProt Q6ZLB0 1-436).
T1 sequence: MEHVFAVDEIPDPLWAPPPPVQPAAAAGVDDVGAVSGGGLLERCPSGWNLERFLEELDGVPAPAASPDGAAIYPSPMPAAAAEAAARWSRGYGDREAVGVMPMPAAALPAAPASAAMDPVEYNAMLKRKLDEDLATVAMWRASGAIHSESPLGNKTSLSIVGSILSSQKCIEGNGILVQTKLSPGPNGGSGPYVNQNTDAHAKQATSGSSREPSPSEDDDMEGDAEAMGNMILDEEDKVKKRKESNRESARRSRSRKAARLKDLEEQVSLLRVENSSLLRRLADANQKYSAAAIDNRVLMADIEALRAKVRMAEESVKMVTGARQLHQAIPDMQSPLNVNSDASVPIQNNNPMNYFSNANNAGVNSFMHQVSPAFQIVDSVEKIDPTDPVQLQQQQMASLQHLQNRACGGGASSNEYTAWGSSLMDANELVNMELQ
Description: protein-binding microarray (RPBM); PBS, 2% BSA, 51.3 ng/ul salmon testes DNA, 50 uM zinc acetate, 200 nM TF, 25 C, 1 h; high values mean tight binding. The settings on record: protein: recombinant; tags: N-terminal polyhistidine and DsRed monomer fusion (pET32a); chain copies: 2; label: CyDye5-dUTP incorporated in the synthesized complementary strand; 3' TTTTT single-stranded linker to array surface; dsDNA, one strand shown. In short, it runs like this: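 Using Ni–NTA, transcription factors fused N-terminally to polyhistidine and DsRed were purified after expression in E. coli BL21-CodonPlus. These were incubated at 200 nM with a blocked, double-stranded custom Agilent array for 1 h at 25 °C in a buffer containing 50 µM zinc acetate, and the array was washed. The binding signal is per-feature fluorescence intensity (arbitrary units) on an Axon 4000B scanner.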
With “CTGGCCATCCACGTGTCCCAGCGTGGCTGCTCTTCCACCACGGAGTCACCTAGTGCAG”, the binding signal is 14800 fluorescence intensity (a.u.).
With “ATACATAGTTCCACCATGTCATCTAAATTCTAAACTCCTTCGGAGTCACCTAGTGCAG”, the binding signal was 3170 fluorescence intensity (a.u.).
Then “TAGAAAGTAGTATTTAGCAATAGCTTAGTGCATTGGCTTTCGGAGTCACCTAGTGCAG”, with 20900 fluorescence intensity (a.u.); and “TTTCCAATCACGTATTCCGGACAAAGGCCTAAACCTGCTCCGGAGTCACCTAGTGCAG”, with 35800 fluorescence intensity (a.u.).
Then “TATGATGATGACATATGGTTGTATGGTCTTTGCTGTGACGCGGAGTCACCTAGTGCAG”, with 5470 fluorescence intensity (a.u.); and “AAAAGATGTGCACTAGTTGACGAAAGACAAAAGAAGGAGTCGGAGTCACCTAGTGCAG”, with 3200 fluorescence intensity (a.u.).
The value for “GCTAGCTATTGTTGATTTGTCGTGTTGTAATATATACACTCGGAGTCACCTAGTGCAG” was 4680 fluorescence intensity (a.u.).
Take “TTTACGTAAGCGGTGACGAAGCAAGTGCCCATGTTCCGGGCGGAGTCACCTAGTGCAG”: the binding signal was 6110 fluorescence intensity (a.u.).
As to “TAGGAGGAGAGAGAACGGGAGGAGATGGGGTAGGAAGGGGCGGAGTCACCTAGTGCAG”, the binding signal is 3610 fluorescence intensity (a.u.).
Then “CCGCACCACCACGCGCCGACACGTGGCTGCCGACCTGATGCGGAGTCACCTAGTGCAG”, with 12500 fluorescence intensity (a.u.); and “GGTGGTGGCAAGCCCTGCTGATCTCATCAAGGTAAGGATGCGGAGTCACCTAGTGCAG”, with 4360 fluorescence intensity (a.u.); and “TTGTTAATTACCGCGATTGATGTCGAGCTTGCATTTTGATCGGAGTCACCTAGTGCAG”, with 3540 fluorescence intensity (a.u.).
Then “ACGCGAGGGACTGTGAGAGCTCACTGGGGTGTCGCCGTGTCGGAGTCACCTAGTGCAG”, with 3580 fluorescence intensity (a.u.); and “AATCAACAAATAACTAATATTCTTACATCAGCTACTATAACGGAGTCACCTAGTGCAG”, with 28600 fluorescence intensity (a.u.); and “TTCTAACCATCCCCTCCTGCTAATAGGTGAATTCCCCGTGCGGAGTCACCTAGTGCAG”, with 3830 fluorescence intensity (a.u.).
Then “TGAGTATAGAATCCATATAGAAATTTAAAACTAACTAAAACGGAGTCACCTAGTGCAG”, with 3860 fluorescence intensity (a.u.); and “ACGCGGGCACGGGGCCCACTGCCGACGTGCCAATCCTGGACGGAGTCACCTAGTGCAG”, with 6960 fluorescence intensity (a.u.); and “CATAGTGGATCTGGAGCTTATCTGCAATGATAAGACAATGCGGAGTCACCTAGTGCAG”, with 3140 fluorescence intensity (a.u.).
For “CTTCGCTGTTTTGACACTCCGTGTGGATGACAAATGGACCCGGAGTCACCTAGTGCAG”, the binding signal is 3750 fluorescence intensity (a.u.).
The value for “GCCTGTAGCCTGGTGGTTACAAGAGCCTCAGTAGCACCTGCGGAGTCACCTAGTGCAG” was 3250 fluorescence intensity (a.u.); that for “ACTACCATGTGTACGTCACGTAGGACCAAAATCGCTCCGGCGGAGTCACCTAGTGCAG” was 7660 fluorescence intensity (a.u.).
On to “GGGACGGAGCAGTACGTTGTAGCATCATGCCATGTCGGCACGGAGTCACCTAGTGCAG”, for which the binding signal is 6520 fluorescence intensity (a.u.).
The value for “GGGGACGGGGAACGCGGCGGTGTGGATGGGGACGGTAGCGCGGAGTCACCTAGTGCAG” was 4050 fluorescence intensity (a.u.).
